Measured values from patent US5811512A (The Trustees of the University of Pennsylvania, priority 1996, dated 1998).
Strings that start with PEPTIDE1 are HELM notation: dots part the residues, brackets hold end groups and non-standard residues.

assay: general procedure: peptide synthesis; 2-chlorotrityl polystyrene; settings: whole synthesis, scale 0.25 mmol

Compared with “PEPTIDE1{F.[dW].A.T.F.P}$PEPTIDE1,PEPTIDE1,1:R1-6:R2$$$V2.0”, “PEPTIDE1{F.[dW].F.T.F.P}$PEPTIDE1,PEPTIDE1,1:R1-6:R2$$$V2.0” is lower in isolated mass: 14.4 mg for the first, 14 mg for the second.

First: PEPTIDE1{F.[dW].L.T.F.P}$PEPTIDE1,PEPTIDE1,1:R1-6:R2$$$V2.0
Second: PEPTIDE1{F.[dW].Y.T.F.P}$PEPTIDE1,PEPTIDE1,1:R1-6:R2$$$V2.0
The isolated mass of the first is higher: 23 mg for the first, 13 mg for the second.
